In assay [1] the target is mouse BTLA, soluble protein (analyte of the Octet assay) (mouse) (UniProt Q7TSA3). In words: protein staining flow cytometry (mHVEM-mCherry cells + mBTLA-His/anti-His green). On the technique in general: Flow cytometry measures light scatter and fluorescence of single cells or particles in a stream.
Assay [2] has the same target. In words: cell-protein flow cytometry (mHVEM-mCherry cells + mBTLA-His/anti-His green).
Assay [3] concerns the target mouse CD160 residues I30-H154 with C-terminal …, refolded from E. coli inclusion bodies (mouse) (UniProt O88875). As to the kind of experiment: cell-protein flow cytometry (mHVEM-mCherry cells + mCD160-biotin/streptavidin-AF488).

Sequences of proteins named here, by UniProt entry; tags and fusion partners are left off. Residues count along the entry.
UniProt Q7TSA3, residues 30-183: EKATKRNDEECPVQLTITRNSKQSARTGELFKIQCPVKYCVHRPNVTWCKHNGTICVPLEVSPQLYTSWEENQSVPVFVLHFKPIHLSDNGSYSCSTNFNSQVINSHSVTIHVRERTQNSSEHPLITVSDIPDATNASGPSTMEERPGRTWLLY

Residue numbers refer to the chain shown, from its start. In names and notes the source's numbering stands. No constants are given. Whether binding was seen depends on the method and setting. Some binding calls cover weakened binding; strength is not graded here.

We go through four molecules from patent US20250326817A1 (LA JOLLA INSTITUTE FOR IMMUNOLOGY, published 2025).

B1: mouse HVEM, wild type, full length, fused to mCherry, on HEK293 FreeStyle cells (receptor)
chain: QPSCRQEEFLVGDECCPMCNPGYHVKQVCSEHTGTVCAPCPPQTYTAHANGLSKCLPCGVCDPDMGLLTWQECSSWKDTVCRCIPGYFCENQDGSHCSTCLQHTTCPPGQRVEKRGTHDQDTVCADCLTGTFSLGGTQEECLPWTNCSAFQQEVRRGTNSTDTTCSSQVVYYVVSILLPLVIVGAGIAGFLICTRRHLHTSSVAKELEPFQEQQENTIRFPVTEVGFAETEEETASN
notes: also called mHVEM; WT mHVEM; not shown: mCherry fused at the C-terminus (pmCherry-N1 vector)
Turning to B1, the binding result in assay [1] and in assay [2] was “binds” in each case.

B2: mouse HVEM H86D-L90A double mutein, full length, fused to mCherry, on cells (receptor)
chain: B1 chain with H48D, L52A
notes: also called mHVEM H86D-L90A; mHVEM^-LIGHT; not shown: mCherry fused at the C-terminus (pmCherry-N1 vector)
As to B2, the binding result in assay [1] and in assay [2] was “binds” in each case.

B3: mouse HVEM R43D-M56A-K64D triple mutation, full length, fused to mCherry, on cells (receptor)
chain: B1 chain with R5D, M18A, K26D
notes: also called mHVEM R43D-M56A-K64D; not shown: mCherry fused at the C-terminus (pmCherry-N1 vector)
With B3, the binding entry in assay [3] is listed as “no binding”.

B4: mouse HVEM A76D, full length, fused to mCherry, on cells (receptor)
chain: B1 chain with A38D
notes: also called mHVEM A76D; not shown: mCherry fused at the C-terminus (pmCherry-N1 vector)
Turning to B4, in assay [2], the binding result is listed as “binds”.
